At least one peptide structure holds a part that was inferred or is arguable (an end, a ring closure or a residue). No end group written: not given here.
Columns and labels:
NK cells = assay: NK cell activation (CD107a) in monoculture, flow cytometry; assay type: cell-based, human; conditions: for activity of NK cells (levels of CD107a): 6 h stimulation, 2000, 4000, 8000 ng/ml (peptide 3: 2000 or 4000 ng/ml), vs untreated; for dose dependence of effect on NK cell activity (CD107a): increasing concentrations 2000-8000 ng/ml
Text: (§1) Inhibitory Peptide synthesis: inhibitory peptide 1: MEQGEFLNYD (SEQ ID NO: 1), inhibitory peptide 2: QILMEQGEFLNYDIM (SEQ ID NO: 2), inhibitory peptide 3: […] (SEQ ID NO: 3), and a control peptide having a scrambled sequence: LEGEDQNFYM (SEQ ID NO: 7) were synthesized by Pepscan Ltd. at a purity of 98.3%.
(§2) Cells: primary NK cells were isolated from patients having advanced fibrosis, human hepatic stellate cells (LX2) were commercially purchased.
Monoculture conditions: peptides were supplemented to media of cultured NK cells for 6 h stimulation.
(§3) Fluorescence-activated cell sorting (FACS): Staining colors of antibodies was as follows: αSMA>PE, CD107>FITC, CD56>. After analysis using LSR Fortessa analyzer, raw data was transferred to analysis program FCS Express v7.0.
Three peptides potentially having an inhibitory effect on NLGn4-Nrx1β PPI were generated. The three peptides (peptide 1, peptide 2, and peptide 3) consist of different amino acid sequences (SEQ ID NO: 1, SEQ ID NO: 2, and SEQ ID NO: 3, respectively) that vary in length, all derived from the same binding site for the NLGn4X ligand β-neurexin. The active binding site includes a domain containing the amino acids 359-364 in NLGn4X and the epitopes critical for binding are E361, L363, H267, Y463, and E270.
Initially, peptides were screened for their effect on the activity of NK cells, which was evaluated by measuring the levels of CD107a activation marker. Monocultures of NK cells were stimulated with increasing concentrations of the potentially inhibitory NLGn4-Nrx1β PPI peptides (FIG. 1 and FIGS. 2A-B).

LX2 cells [1] = assay: LX2 cell activity (αSMA) in monoculture, flow cytometry; assay type: cell-based, human; conditions: monoculture, 2000, 4000, 8000 ng/ml (peptide 3: 2000 or 4000 ng/ml), vs untreated
Text: as §1, §2, §3
Following that, the NLGn4-Nrx1β PPI peptides were screened for their effect on the activity of LX2 cells, which was evaluated by measuring the levels of αSMA activation marker. Monocultures of LX2 cells were stimulated with increasing concentrations of the NLGn4-Nrx1βPPI peptides (FIGS. 3A-C).

LX2 cells [2] = assay: αSMA in LX2 cells co-cultured with peptide pre-activated NK cells, flow cytometry; assay type: cell-based, human; conditions: for dose dependence of effect in co-culture (αSMA): NK cells pre-activated with increasing concentrations; for activity of LX2 cells (levels of αSMA) in co-culture with pre-activated NK cells: NK cells pre-stimulated 6 h with 2000-8000 ng/ml peptide, co-culture 24 h
Description: as §2
Co-culture conditions: co-cultures conditions—peptides were supplemented to media of cultured NK cells for 6 h stimulation followed by a wash, trypsinization, and coculturing on LX2 cells for an additional 24 h.
as §3
To test if NLGn4-Nrx1β PPI inhibitory peptides mediated deactivation of LX2 cells is more prominent in the presence of NK cells, a co-culture setting was established for LX2 cells in the presence or absence of activated NK cells (FIGS. 4A-C).
In this setting, NK cells were stimulated with increasing concentrations of NLGn4-Nrx1βPPI inhibitory peptides before co-culturing them with LX2 cells, to examine whether pre-activation makes them more functional in deactivating LX2 cells.

LX2/NK cells = assay: FACS sorting of adherent cells in co-culture of LX2/peptide-activated NK cells (CD56/αSMA); assay type: cell-based, human; conditions: increasing concentrations, relative to untreated co-cultured LX2/NK cells
[3] = tested on: CCl4-induced mice (acute hepatic fibrosis model); assay: Serum ALT by ELISA in CCl4 model; assay type: in vivo; conditions: 5 or 10 mg/mice i.p. 3×/week for 4 weeks
Description: (§4) Animal model: 40 WT naïve C57BL/6J male mice (12 weeks) were either induced for acute hepatic fibrosis by i.p injections of 0.5 μl pure carbon tetrachloride CCl4/g body weight (one to nine dilution in mineral oil) (CCl4; Sigma, C-5331) 3×/week for four weeks as an advanced model of hepatic fibrosis, or left untreated (induced n=32, control n=8 per experiment). NLGn4-Nrx1β PPI modulator peptide 1 was i.p injected to CCl4 induced mice as preventive doses from the beginning of the model starting at 1st week of CCl4 at a concentration of 5 and 10 mg/mice 3×/week for four weeks (5 mg/mice n=8, 10 mg/mice n=8). A scrambled peptide was also i.p injected to CCl4 induced mice (5 mg/mice n=8, 10 mg/mice n=8). Food and water intake were recorded every week. Mice were sacrificed two days after the final CCl4 injection. To this end, the animals were weighed and anesthetized with inhaled 5% isoflurane for 10 seconds before cervical dislocation.
Histological and biochemical assessment of mice livers: The posterior one-third of the liver was fixed in 4% formalin for 24 hours and then paraffin-embedded in an automated tissue processor. […] Serum ALT concentrations were determined using ELISA. […]

[4] = tested on: CCl4-induced mice (acute hepatic fibrosis model); assay: Liver histology (H&E, Sirius Red, Masson's trichrome) in CCl4 model; assay type: in vivo; conditions: 5 or 10 mg/mice i.p. 3×/week for 4 weeks
Description: as §4
Histological and biochemical assessment of mice livers: The posterior one-third of the liver was fixed in 4% formalin for 24 hours and then paraffin-embedded in an automated tissue processor. Sections (7 mm) were stained for H&E for evaluating steatosis, necro-inflammatory regions and apoptotic bodies, 0.1% Sirius red F3B in saturated picric acid (Abcam, ab150681) as well as Masson's trichrome stain for connective tissue (Abcam, ab150686). Mice whole blood samples were collected at the sacrificing day, centrifuged at 3500 rpm for 10 minutes at 4° C. Serum ALT concentrations were determined using ELISA.
Following the establishment of the CCl4-induced acute hepatic fibrosis model in mice, two days after the final CCl4 and NLGn4-Nrx1β PPI modulator peptide 1 or scrambled peptide (SEQ ID NO: 7) injections, mice livers were harvested, biopsies for histological staining and examination of liver pathology were taken, and extraction of mRNA and protein was performed for assessment of gene expression using RT-PCR, western blot and ELISA assays, as well as extraction of isolated NK cells for immunofluorescence staining. Genes whose expression was analyzed included F-actin in isolated NK cells, β-neurexin, and a panel of liver fibrosis markers (such as alpha-SMA expression—a biomarker of HSC activation, collagen produced by HSC, CREBP, and MMP-9). In addition, sera were collected for detection of inflammation and expression of alanine transaminase (ALT—a biomarker for liver health).

[5] = tested on: CCl4-induced mice (acute hepatic fibrosis model); assay: Liver fibrotic markers by RT-PCR and western blot in CCl4 model; assay type: in vivo; conditions: 5 or 10 mg/mice i.p. 3×/week for 4 weeks
β-neurexin = β-neurexin expression in liver by RT-PCR in CCl4 model; assay type: in vivo; conditions: relative to naïve mice, 5 or 10 mg/mice i.p. 3×/week for 4 weeks
liver NK cells = assay: F-actin expression in liver NK cells (western blot, immunofluorescence) in CCl4 model; assay type: in vivo, mice
Description: as §4, with “A scrambled peptide was also i.p injected to CCl4 induced mice (5 mg/mice n=8, 10 mg/mice n=8).” left out, “Mice were sacrificed two days after the final CCl4 injection. To this end, the animals were weighed and anesthetized with inhaled 5% isoflurane for 10 seconds before cervical dislocation.” left out
Western blot analysis: Liver protein extracts were homogenized with buffer (50 mmol/L Tris-HCl [pH 7.61, 0.25% Triton-X 100, 0.15 M NaCl, 10 mM CaCl2) and complete mini EDTA-free protease inhibitor cocktail (Roche Diagnostics, Mannheim, Germany). […] Immunoreactivity was detected using an ECL kit (Abcam).
Immunofluorescence staining: For deparaffinization, paraffin-embedded sections were placed at 60° C. for 15 minutes, incubated in xylene at room temperature for 15 minutes, and then transferred sequentially to 100% EtOH, 95% EtOH, 70% EtOH, and 50% EtOH for four minutes each at room temperature. […] An argon laser (488 nm excitation) was used to detect green fluorescence, and an Alexa Fluor laser (552 nm) to detect red fluorescence. […]

Hep3B cells [6] = assay: Proliferation and oncogenic markers in Hep3B cells (ELISA, flow cytometry); assay type: cell-based, human; conditions: 8000 ng/ml, vs scrambled control peptide
Hep3B cells [7] = assay: Cell cycle analysis of Hep3B cells by flow cytometry, PI staining; assay type: cell-based, human; conditions: 8000 ng/ml
Description: Cell cycle analysis by Flow cytometry: evaluation of cell cycle stage of Hep3B HCC cells, was performed according to a standard protocol, using Propidium-Iodide (PI)-staining of nuclei. To […] attenuation of the proliferative capabilities of HCC cells following modulation by peptide 1, the stage of the cell cycle of Hep3B cells treated with 8000 ng/ml peptide 1 or with a control peptide having a scrambled sequence was evaluate using flow cytometry and Propidium Iodide (PI)-staining.

Hep3B cells [8] = assay: Phosphorylated AKT/mTOR/P70S6K in Hep3B cells by flow cytometry; assay type: cell-based, human; conditions: 8000 ng/ml, vs scrambled control peptide
Hep3B cells [9] = assay: Cell death assessment of Hep3B cells by flow cytometry; assay type: cell-based, human; conditions: 8000 ng/ml, vs control scrambled peptide
[10] = compared to CCl4 induced livers

DPQILMEQGEFLNYDIMLGV [peptide 3]
activity of NK cells (levels of CD107a) (NK cells): elevated the activity of the cells | dose dependence of effect on NK cell activity (CD107a) (NK cells): inverse dose-dependent pattern | activity of LX2 cells (levels of αSMA) (LX2 cells [1]): deactivation of the cells | dose dependence of effect in co-culture (αSMA) (LX2 cells [2]): dose-dependent pattern | activity of LX2 cells (levels of αSMA) in co-culture with pre-activated NK cells (LX2 cells [2]): downregulated the activity of the LX2 cells

MEQGEFLNYD [peptide 1, MEQGEFLNYD]
activity of NK cells (levels of CD107a) (NK cells): elevated the activity of the cells | dose dependence of effect on NK cell activity (CD107a) (NK cells): dose-dependent manner | activity of LX2 cells (levels of αSMA) (LX2 cells [1]): deactivated the cells | dose dependence of effect in co-culture (αSMA) (LX2 cells [2]): dose-dependent | activity of LX2 cells (levels of αSMA) in co-culture with pre-activated NK cells (LX2 cells [2]): synergistically deactivated LX2 activity | reduction in αSMA expression level (LX2 cells [2]; co-culture, highest concentration of peptide 1, vs untreated co-cultured cells): 50% | subpopulation expressing CD56+/αSMA+ double-positive markers (NK cells that adhere to active LX2 cells) (LX2/NK cells): reduction | subpopulation expressing CD56+/αSMA− single-positive markers (NK cells that adhere to unactive LX2 cells) (LX2/NK cells): increase | levels of serum ALT [3]: reduced levels of serum ALT, similar to the levels of the naïve untreated mice | accumulation of thick fibrotic tissue (Masson's trichrome staining) [4]: minimal accumulation of thick fibrotic tissue | collagen deposition / fibrous dense tissue (Sirius Red staining) [4]: remarkable reduction in the fibrous dense tissue | micro- and macrovascular steatosis (H&E) [4]: significant reduction | necrotic areas of high infiltrating inflammatory cells with steatosis (H&E) [4, 10]: reduced necrotic areas | swelling of centrilobular hepatocytes (H&E) [4, 10]: reduced swelling of centrilobular hepatocytes | liver CREBP mRNA ([5]; RT-PCR): relative reduction | liver collagen I mRNA ([5]; RT-PCR): relative reduction | liver αSMA mRNA ([5]; RT-PCR): relative reduction | liver MMP-9 protein ([5]; western blot): relative reduction | liver αSMA protein ([5]; western blot): relative reduction | levels of β-neurexin in liver (β-neurexin): prevented this increase | F-actin inside NK cells, co-localization with NKP46 (immunofluorescence) (liver NK cells; immune-stained liver tissue, confocal microscopy): higher fluorescence intensities and co-localized with Natural Cytotoxicity Receptors (NKP46) inside NK cells | expression of F-actin in isolated liver NK cells (liver NK cells; western blot, relative to naïve mice or scrambled peptide): strong upregulation | reduction in MKI67 expression level (Hep3B cells [6]): about 2 fold | reduction in PDGFRA expression level (Hep3B cells [6]): about 2 fold | percentage of cells existing at a state of G1 (Hep3B cells [7]): 59% | percentage of cells existing at a state of G2-M phase (Hep3B cells [7]): 10% | percentage of cells existing at a state of S-phase (Hep3B cells [7]): 7% | decrease in percentage of cells at S-phase (Hep3B cells [7]; vs scrambled control peptide): about 2 fold | delay/decrease in percentage of cells at G2-M phase (Hep3B cells [7]; vs scrambled control peptide): 2.5 fold | increase in percentage of cells at G1 (Hep3B cells [7]; vs scrambled control peptide): about 2 fold | reduction in phosphorylated AKT (percentage of cells expressing and/or level of expression) (Hep3B cells [8]): 2 fold | reduction in phosphorylated P70S6K (percentage of cells expressing and/or level of expression) (Hep3B cells [8]): 2 fold | reduction in phosphorylated mTOR (percentage of cells expressing and/or level of expression) (Hep3B cells [8]): 2 fold | increase in apoptotic marker phosphatidylserine (Annexin-V+/PI− apoptotic cells) (Hep3B cells [9]): 3 fold | reduction in level of expression of the necrotic marker CDNK2A (Hep3B cells [9]): 2 fold | viability of non-apoptotic cells (Annexin-V−/PI+) (Hep3B cells [9]): remained the same

— patent publication US20240409602A1, “PEPTIDE MODULATORS OF NEUROLIGIN 4-NEUREXIN 1-BETA AXIS FOR TREATMENT OF LIVER DISORDERS” (HADASIT MEDICAL RESEARCH SERVICES AND DEVELOPMENT LTD., priority 2022, published 2024)
